The other results are listed elsewhere or left out. Further columns of the screen follow, without active or inactive calls. Most of these compounds were active or inconclusive in the main read-out, so they are no random draw. Potencies come from curve fits of mixed quality, noted in brackets.
Assay: qHTS Assay for Modulators of Lamin A Splicing
Conditions: HeLa LMNA splicing GFP/RFP minigene ratio, 48 h
Summary of the method: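 S3 HeLa stable clones carrying a lamin A-EGFP splicing minigene plus DsRed2 were seeded at 600 cells/well in Opti-MEM with 2% FBS, pin-dosed and incubated 48 h at 37°C. Acumen cytometry (488 nm) gave the GFP/RFP total-intensity ratio.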

[1] = measured here: RFP viability control channel
[2] = measured here: GFP splicing reporter channel

Structure (SMILES) | AC50 [1] | AC50 [2]
Cc1ccc(C(C)(C)C)cc1S(=O)(=O)NC(=O)c1ccccc1 | 0.447 µM [falling, full curve] | –
O=C(Nc1cc(F)ccc1F)C1CCN(c2nc3ccccc3n3cccc23)CC1 | 22.4 µM [falling, partial curve] | 20 µM [falling, partial curve]
COC(=O)c1ccc(OCC(=O)c2ccccc2OC)cc1 | 2.24 µM [falling, partial curve] | –
O=C(C1CCN(Cc2cn[nH]c2-c2ccc(F)cc2F)CC1)N1CCOCC1 | – | 0.562 µM [rising, full curve]
Cc1ccc(NC(=O)/C=C/c2ccc([N+](=O)[O-])s2)cc1 | 4.47 µM [falling, full curve, poor fit] | 2.82 µM [falling, partial curve, poor fit]
CCn1c(=O)cc(SCC(=O)Nc2ccc3c(c2)OCCO3)c2ccccc21 | 20 µM [rising, single point] | –
COc1ccc(CCN=CC2=C(O)CC(C)(C)CC2=O)cc1 | – | 0.794 µM [rising, full curve, poor fit]
Cc1nc2c(C(=O)NCCc3ccc(Cl)cc3)cnn2c(C)c1Cc1c(F)cccc1Cl | 2.82 µM [rising, partial curve, poor fit] | –
CC(C)CN1C(=O)C(=O)N(CC(=O)N2CCC(Cc3ccccc3)CC2)C1=O | – | 1.78 µM [rising, full curve]
CC(=O)Nc1c(C)nn(-c2ccccc2)c1N1CCC(C(=O)NCc2ccc(Cl)cc2)CC1 | – | 6.31 µM [falling, single point]
O=C(NCCc1ccccc1)c1cc(=O)[nH]c2ccccc12 | – | 0.562 µM [falling, full curve, poor fit]
O=C(NCc1cccs1)c1ccc2c(c1)N(Cc1ccccc1Cl)C(=O)c1ccccc1S2 | 6.31 µM [rising, single point] | –
Cn1c(CSCc2ccccc2)nnc1SCC(=O)Nc1nccs1 | 35.5 µM [rising, single point] | –
O=C(Nc1cc(S(=O)(=O)N2CCCCC2)ccc1O)c1ccccc1NS(=O)(=O)c1ccc(F)cc1 | 35.5 µM [rising, single point] | –
Cc1ccccc1N1C(=O)CC1(C#N)c1ccc(OCc2ccccc2)cc1 (stereo not drawn) | 35.5 µM [rising, single point] | 15.8 µM [rising, partial curve, poor fit]
CC1(C)CSC(=NCc2ccccc2)N1C(=O)c1cccc([N+](=O)[O-])c1 | 17.8 µM [rising, single point] | –
CC(C)Oc1ccc(CC(=O)NNC(=S)Nc2ccc(Br)cc2)cc1 | 11.2 µM [rising, partial curve, poor fit] | 12.6 µM [rising, partial curve]
Nc1nc(SCC(=O)N2CCOCC2)n[nH]1 | 5.01 µM [falling, full curve, poor fit] | 3.16 µM [falling, full curve, poor fit]
C=C(C)CSc1nc(N)c2c(C)c(C)sc2n1 | 15.8 µM [rising, single point] | 35.5 µM [rising, single point]

In the list so far, these contain an aryl methoxy group:
Structure (SMILES) | AC50 [1] | AC50 [2]
COC(=O)c1ccc(OCC(=O)c2ccccc2OC)cc1 | 2.24 µM [falling, partial curve] | –
COc1ccc(CCN=CC2=C(O)CC(C)(C)CC2=O)cc1 | – | 0.794 µM [rising, full curve, poor fit]

Further compounds follow.

Structure (SMILES) | AC50 [1] | AC50 [2]
COc1ccc(CNC(=O)c2cc3cc(C)ccc3n2C)cc1 | – | 0.251 µM [falling, full curve, poor fit]
O=C(Nc1ccncc1)c1ccc2c(c1)C(=O)N(C1CCCCC1)C2=O | 15.8 µM [rising, single point] | 17.8 µM [rising, partial curve, poor fit]
COc1cc(/C=N/NC(=O)c2cccnc2)ccc1OS(=O)(=O)c1ccc(F)cc1 | 35.5 µM [rising, single point] | –
COc1c(OC(C)=O)ccc(/C=C/c2ccc3ccccc3n2)c1[N+](=O)[O-] | 25.1 µM [rising, single point] | 17.8 µM [rising, single point]
Cc1cc(N2C(=O)C3C4C=CC(C4)C3C2=O)ccc1NC(=O)c1cccs1 (stereo not drawn) | 0.794 µM [rising, full curve, poor fit] | 15.8 µM [rising, partial curve, poor fit]
Cc1onc(-c2c(Cl)cccc2Cl)c1C(=O)N[C@H]1C(=O)N2[C@H]1SC(C)(C)[C@H]2C(=O)O | 0.0794 µM [falling, full curve] | 0.0562 µM [falling, full curve]
CC(=O)Nc1ccccc1OCC(=O)c1ccc2c(c1)OCO2 | 35.5 µM [rising, single point] | –
Cc1ccc(NC(=O)Cc2ccc(Cl)c(Cl)c2)cc1S(=O)(=O)N(C)C | 25.1 µM [rising, single point] | –
Cc1cc(C)cc(Nc2cc(-c3ccccc3)nc(C)n2)c1 | 35.5 µM [falling, single point] | 31.6 µM [falling, partial curve]
Cc1ccc(NC(=O)O/N=C/c2cccc([N+](=O)[O-])c2)cc1 | – | 4.47 µM [rising, single point]
COc1ccc(S(=O)(=O)N2CCCCCC2)cc1N(C)S(=O)(=O)c1ccc(C)cc1 | 31.6 µM [rising, single point] | –
CCC(CC)C(=O)NCc1ccc(Cl)cc1 | – | 0.891 µM [falling, full curve, poor fit]
COC(=O)c1cccc(NC(=O)Cn2nnc3ccccc32)c1 | 22.4 µM [rising, single point] | –
Cc1ccc(-c2cccc(C(=O)NCCc3ccccc3)n2)c2ccccc12 | 14.1 µM [rising, partial curve] | 11.2 µM [rising, partial curve]
CCOC(=O)C1CCCN(C(=O)c2ccc3c(=O)n(CCOC)c(=S)[nH]c3c2)C1 (stereo not drawn) | 14.1 µM [rising, partial curve] | –
CCOc1ccc(NC(=O)CN2CCN(CC(=O)Nc3ccc(Cl)c(C(F)(F)F)c3)CC2)cc1 | 35.5 µM [rising, single point] | –
S=C(Nc1ccc(Oc2ccccc2)cc1)N(CCCN1CCOCC1)Cc1ccccn1 | – | 12.6 µM [falling, partial curve, poor fit]
CCn1c(SCc2ccccc2)nnc1-c1cccnc1 | 2.51 µM [falling, full curve, poor fit] | –
Cc1c(Cl)c([N+](=O)[O-])nn1CCCC(=O)Nc1cc(Cl)ccc1Cl | 12.6 µM [rising, partial curve] | –

Structure (SMILES) | AC50 [1] | AC50 [2]
COc1ccc(CNC(=O)Cn2nc(C)c3nn(-c4ccc(Cl)cc4)c(C)c3c2=O)cc1 | 1 µM [rising, partial curve] | 0.316 µM [rising, full curve, poor fit]
CCC1=[N+](CC(=O)c2ccc(C)cc2)CCn2c(C)ccc21 | 35.5 µM [rising, single point] | –
O=c1c(Cl)cc(Cl)nn1-c1ccccc1 | 3.98 µM [falling, partial curve, poor fit] | –
COc1ccc(/C=C/C(=O)OCC(=O)Nc2cccc(Oc3ccccc3)c2)c(OC)c1 | 25.1 µM [rising, single point] | 14.1 µM [rising, single point]
CCSC(C)CC1C/C(=N/O)c2c(C)noc2C1 (stereo not drawn) | 14.1 µM [rising, single point] | –
COc1ccc(-c2c(C)[nH]n3c(=O)c(Cc4ccccc4)c(C)nc23)cc1 | 22.4 µM [rising, single point] | –
O=C(Cn1nnc(-c2ccc(CN3CCOCC3)cc2)n1)N(c1ccccc1)c1ccccc1 | 35.5 µM [falling, single point] | 5.62 µM [falling, partial curve, poor fit]
CCCCN(Cc1ccccc1)C(=O)C1CCN(Cc2sccc2C)CC1 | 35.5 µM [rising, single point] | –
Cc1ccnc(NC(=O)COc2ccc3oc4c(c3c2)CCCC4)c1 | 35.5 µM [rising, single point] | –
CCOc1ccc(N2CC(c3nc(-c4cc(OC)c(OC)c(OC)c4)no3)CC2=O)cc1 (stereo not drawn) | – | 35.5 µM [falling, partial curve, poor fit]
COc1cccc(N2CC(NC(=O)c3ccc(S(=O)(=O)N4CCCC4)cc3)CC2=O)c1 (stereo not drawn) | 0.0631 µM [rising, full curve, poor fit] | –
Cc1ccc(N2CCN(C3=NC(=O)C(Cc4ccccc4)S3)CC2)cc1 (stereo not drawn) | 11.2 µM [rising, partial curve, poor fit] | –
CC(C)c1ccc(C(=O)CSc2n[nH]c(-c3ccncc3)n2)cc1 | 15.8 µM [rising, single point] | 14.1 µM [rising, partial curve, poor fit]
O=C(COC(=O)C1CCCCC1)Nc1ccc(S(=O)(=O)N2CCOCC2)cc1 | 0.0112 µM [rising, partial curve, poor fit] | –
Cc1cc(-c2csc(NC(=O)c3ccc(S(=O)(=O)N(C)C)cc3)n2)c(C)n1-c1ccccc1 | 3.16 µM [rising, full curve] | 3.16 µM [rising, full curve]
O=C1C(CCC(O)c2ccc(F)cc2)C(c2ccc(O)cc2)N1c1ccc(F)cc1 (stereo not drawn) | 0.00562 µM [falling, full curve, poor fit] | –
CCOC(=O)c1cnc2c(c(C)nn2C)c1Oc1ccc(Cl)cc1 | 35.5 µM [rising, single point] | –
CC(O)CNCCOc1cccc(Oc2ccccc2)c1 (stereo not drawn) | – | 4.47 µM [rising, full curve, poor fit]

Reformatted: entries from further up.
Structure (SMILES)	AC50 [1]	AC50 [2]
COc1c(OC(C)=O)ccc(/C=C/c2ccc3ccccc3n2)c1[N+](=O)[O-]	25.1 µM [rising, single point]	17.8 µM [rising, single point]
CCC(CC)C(=O)NCc1ccc(Cl)cc1	–	0.891 µM [falling, full curve, poor fit]

Source: PubChem BioAssay AID1487 (National Center for Advancing Translational Sciences (NCATS), 2009)
